SMILES strings stand for the structures. Where a name gives a salt, the structure may show the parent alone. Some of the results follow. Repeats are few or missing, and single values can be far off.

The experiment concerns p95-ErbB2-MCF7. Briefly: perinuclear lysosome accumulation (PNLA, size of LAMP2 puncta), robust Z-score vs plate median; higher = more perinuclear lysosome accumulation (reversal of invasive lysosome distribution). As to conditions: 5 µM; 24 h.
For the compound `CN(C)CCCN1c2ccccc2CCc2ccc(Cl)cc21` [Clomipramine hydrochloride], the perinuclear lysosome accumulation is 1.12. The figure for `Cc1cc(NC(=O)C2=C(O)c3ccccc3S(=O)(=O)N2C)no1` [Isoxicam] is -0.695; for `Cc1cc(C(C)(C)CC(C)(C)C)ccc1OCCOCC[N+](C)(C)Cc1ccccc1` [Methyl benzethonium chloride] it is 5.02.

Take `CN1CCN(CCCN2c3ccccc3Sc3ccc(S(=O)(=O)N(C)C)cc32)CC1` [Thioproperazine dimesylate]: the perinuclear lysosome accumulation is 2.13. The figure for `O=C(O)Cc1ccccc1Nc1c(Cl)cccc1Cl` [Diclofenac sodium] is -2.18.

With `CC(=O)Oc1cc(C(F)(F)F)ccc1C(=O)O` [Triflusal], the perinuclear lysosome accumulation is 0.567. `CS(=O)(=O)c1ccc([C@@H](O)[C@@H](CO)NC(=O)C(Cl)Cl)cc1` [Thiamphenicol]: the perinuclear lysosome accumulation came to 0.694. The value for `CC(C)Cc1ccc([C@H](C)C(=O)O)cc1` [S-(+)-ibuprofen] was -0.434. Take `C[C@]12C=CC(=O)C=C1CC[C@@H]1[C@@H]2[C@@H](O)C[C@@]2(C)[C@H]1CC[C@]2(O)C(=O)CO` [Prednisolone]: the perinuclear lysosome accumulation is -1.02. The figure for `O=c1[nH]cc(F)c(=O)[nH]1` [5-fluorouracil] is -3.61; for `O=C1C(CC[S+]([O-])c2ccccc2)C(=O)N(c2ccccc2)N1c1ccccc1` (configuration not stated) [Sulfinpyrazone] it is 0.27. The value for `NS(=O)(=O)c1cc2c(cc1Cl)N=C(CSCc1ccccc1)NS2(=O)=O` [Benzthiazide] was 1.18; that for `CC(=O)O[C@]1(C(C)=O)CC[C@H]2[C@@H]3C=C(C)C4=CC(=O)CC[C@@H]4[C@H]3CC[C@@]21C` [Nomegestrol acetate] was -0.248; that for `COC(=O)[C@H]1[C@H]2C[C@@H]3c4[nH]c5cc(OC)ccc5c4CCN3C[C@H]2C[C@@H](OC(=O)c2cc(OC)c(OC)c(OC)c2)[C@@H]1OC` [Reserpine] was 0.29.

`CCOC(=O)Nc1ccc2c(c1)N(C(=O)CCN1CCOCC1)c1ccccc1S2` [Moricizine hydrochloride]: the perinuclear lysosome accumulation is -3.1. The value for `CC(C)NCC(O)c1ccc(NS(C)(=O)=O)cc1` (configuration not stated) [Sotalol hydrochloride] was 0.403; that for `C#C[C@]1(O)CC[C@H]2[C@@H]3CCc4cc(OC)ccc4[C@H]3CC[C@@]21C` [Ethynylestradiol 3-methyl ether] was 0.406. The figure for `CC(=O)N1CCN(c2ccc(OCC3COC(Cn4ccnc4)(c4ccc(Cl)cc4Cl)O3)cc2)CC1` (configuration not stated) [Ketoconazole] is 2.58. As to `CCN(CC)CCCC(C)Nc1c2ccc(Cl)cc2nc2ccc(OC)cc12` (configuration not stated) [Quinacrine dihydrochloride dihydrate], the perinuclear lysosome accumulation turned out to be 8.01.

As for `CCCCCCCCCCCCCCCC[N+](C)(C)CCN(Cc1ccc(OC)cc1)c1ncccn1` [Thonzonium bromide], the perinuclear lysosome accumulation came out at 4.43. The figure for `CS(=O)(=O)Nc1ccc([N+](=O)[O-])cc1Oc1ccccc1` [Nimesulide] is 0.15. The figure for `COc1cc(C)nc(-n2nc(C)cc2OC)n1` [Epirizole] is -0.564; for `CCn1cc(C(=O)O)c(=O)c2cc(F)c(N3CCNC(C)C3)c(F)c21` (configuration not stated) [Lomefloxacin hydrochloride] it is -1.01; for `CNC(=C[N+](=O)[O-])NCCSCc1csc(CN(C)C)n1` [Nizatidine] it is -2.21. The value for `C[C@]12C=CC(=O)C=C1CC[C@@H]1[C@@H]2C(=O)C[C@@]2(C)[C@H]1CC[C@]2(O)C(=O)CO` [Prednisone] was -1.35; that for `C[C@@H]1CN(c2c(F)c(N)c3c(=O)c(C(=O)O)cn(C4CC4)c3c2F)C[C@H](C)N1` [Sparfloxacin] was 1.49; that for `CC[C@]12CCCN3CCc4c(n(c5ccccc45)C(=O)C1)[C@@H]32` [Eburnamonine (-)] was 0.936. As to `CCn1cc(C(=O)O)c(=O)c2cc(F)c(N3CCN(C)CC3)cc21` [Pefloxacine], the perinuclear lysosome accumulation was -2.27.

For `CCc1cc(C(N)=S)ccn1` [Ethionamide], the perinuclear lysosome accumulation is -1. For `CCC(=O)[C@@]1(C)[C@H](C)C[C@H]2[C@@H]3CCC4=CC(=O)C=C[C@]4(C)[C@H]3[C@@H](O)C[C@@]21C` [Rimexolone], the perinuclear lysosome accumulation is -0.461.

As to `CN(N=O)C(=O)N[C@@H](C=O)[C@@H](O)[C@H](O)[C@H](O)CO` [Streptozotocin], the perinuclear lysosome accumulation came out at 0.36. The figure for `O=C(N/N=C/c1ccc([N+](=O)[O-])o1)c1ccc(O)cc1` [Nifuroxazide] is -1.26; for `CN1CCN(C(c2ccccc2)c2ccc(Cl)cc2)CC1` (configuration not stated) [Chlorcyclizine hydrochloride] it is 1.4; for `O=C1C=CC(=O)c2c1ccc1c2ccc2ccccc21` [Chrysene-1,4-quinone] it is -2.89.

Regarding `CC(C)(O/N=C(\C(=O)N[C@@H]1C(=O)N2C(C(=O)[O-])=C(C[n+]3ccccc3)CS[C@H]12)c1csc(N)n1)C(=O)O` [Ceftazidime pentahydrate], the perinuclear lysosome accumulation was -1.43. The value for `Cc1c(Cl)cccc1Nc1ncccc1C(=O)O` [Clonixin Lysinate] was 0.902; that for `C[C@H]1[C@H](NC(=O)/C(=N\OC(C)(C)C(=O)O)c2csc(N)n2)C(=O)N1S(=O)(=O)O` [Aztreonam] was 0.0653. Turning to `CNCCC=C1c2ccccc2CCc2ccccc21` [Nortriptyline hydrochloride], the perinuclear lysosome accumulation was determined as 4.39. The figure for `CCc1c2c(nc3ccc(OC(=O)N4CCC(N5CCCCC5)CC4)cc13)-c1cc3c(c(=O)n1C2)COC(=O)[C@]3(O)CC` [Irinotecan Hydrochloride] is 1.92; for `COc1cc2nc(N3CCN(C(=O)C4CCCO4)CC3)nc(N)c2cc1OC` (configuration not stated) [Terazosin hydrochloride] it is 0.0587; for `Nc1ccc(S(=O)(=O)Nc2ccc(Cl)nn2)cc1` [Sulfachloropyridazine] it is -0.18. The value for `CN(C)CCCOc1nn(Cc2ccccc2)c2ccccc12` [Benzydamine hydrochloride] was -0.415; that for `C#C[C@]1(O)CC[C@H]2[C@@H]3[C@H](C)CC4=C(CCC(=O)C4)[C@H]3CC[C@@]21C` [Tibolone] was -1.68. The figure for `CC(=O)OCC(=O)[C@@]1(O)CC[C@H]2[C@@H]3CCC4=CC(=O)C=C[C@]4(C)[C@@]3(F)[C@@H](O)C[C@@]21C` [Isoflupredone acetate] is -1.1; for `CC(=O)Oc1cc(C(C)C)c(OCCN(C)C)cc1C` [Moxisylyte hydrochoride] it is -0.15. Regarding `CC(c1cc2ccccc2s1)N(O)C(N)=O` (configuration not stated) [Zileuton], the perinuclear lysosome accumulation came out at 2.74. In the case of `COc1cc(C)c(/C=C/C(C)=C/C=C/C(C)=C/C(=O)O)c(C)c1C` [Acitretin], the perinuclear lysosome accumulation is -0.274. The figure for `CN(C)CCC=C1c2ccccc2C=Cc2ccccc21` [Cyclobenzaprine hydrochloride] is 0.972.

On to `C[N+]1(C)CCC(=C(c2ccccc2)c2ccccc2)CC1` [Diphemanil methylsulfate], for which the perinuclear lysosome accumulation is -0.705. The value for `NS(=O)(=O)c1cc2c(cc1Cl)NCNS2(=O)=O` [Hydrochlorothiazide] was -2.54. The figure for `CNNCc1ccc(C(=O)NC(C)C)cc1` [Procarbazine hydrochloride] is -1.99; for `O=c1[nH]c(=O)n([C@H]2C[C@H](O)[C@@H](CO)O2)cc1F` [Floxuridine] it is 0.478. The figure for `CC(=O)Oc1cccc2c1C(=O)c1c(OC(C)=O)cc(C(=O)O)cc1C2=O` [Diacerein] is 0.213; for `C=C1C[C@H]2[C@@H]3C=C(C)C4=CC(=O)CC[C@]4(C)[C@H]3CC[C@]2(C)[C@@]1(OC(C)=O)C(C)=O` [Melengestrol acetate] it is -2.38.

For the compound `Nc1ccc(S(=O)(=O)c2ccc(N)cc2)cc1` [Dapsone], the perinuclear lysosome accumulation is 2.29. For the compound `OC[C@H]1O[C@@H](Oc2ccc(O)cc2)[C@H](O)[C@@H](O)[C@@H]1O` [Arbutin], the perinuclear lysosome accumulation is -0.526. The value for `N=C(N)NCC1COC2(CCCCC2)O1` (configuration not stated) [Guanadrel sulfate] was -1.17; that for `CC1(C)OC(=O)NC1=O` [Dimethadione] was -1.21. The value for `Nc1ccc(C(=O)NCC(=O)O)cc1` [Aminohippuric acid] was 0.956; that for `COc1ccc(NS(=O)(=O)c2ccc(N)cc2)nn1` [Sulfamethoxypyridazine] was 0.0462. The value for `Cn1nnnc1SCC1=C(C(=O)O)N2C(=O)[C@@H](NC(=O)[C@H](O)c3ccccc3)[C@H]2SC1` [Cefamandole sodium salt] was -0.054; that for `CCC[C@H](N[C@@H](C)C(=O)N1[C@H](C(=O)O)C[C@@H]2CCCC[C@@H]21)C(=O)OCC` [Perindopril] was -2.66; that for `CO[C@@H]1[C@@H](OC(N)=O)[C@@H](O)[C@H](Oc2ccc3c(O)c(NC(=O)c4ccc(O)c(CC=C(C)C)c4)c(=O)oc3c2C)OC1(C)C` [Novobiocin sodium salt] was 1.17.

With `CCN1CCN(C(=O)N[C@@H](C(=O)N[C@@H]2C(=O)N3[C@@H]2SC(C)(C)[C@@H]3C(=O)O)c2ccccc2)C(=O)C1=O` [Piperacillin sodium salt], the perinuclear lysosome accumulation was found to be 0.0643. The figure for `CN(C)CCC[C@@]1(c2ccc(F)cc2)OCc2cc(C#N)ccc21` [Escitalopram] is 0.666; for `CCCC(=O)Nc1ncnc2c1ncn2[C@@H]1O[C@@H]2COP(=O)(O)O[C@H]2[C@H]1OC(=O)CCC` [Bucladesine sodium salt] it is -0.00782. The figure for `CN1CCCC(n2nc(Cc3ccc(Cl)cc3)c3ccccc3c2=O)CC1` (configuration not stated) [Azelastine HCl] is 2.59. The figure for `CN1CCCCC1CCN1c2ccccc2Sc2ccc([S+](C)[O-])cc21` (configuration not stated) [Mesoridazine besylate] is 1.19; for `NC(=O)N/N=C/c1ccc([N+](=O)[O-])o1` [Nitrofural] it is -0.678. With `COc1ccc2[nH]cc(CCNC(C)=O)c2c1` [Melatonin], the perinuclear lysosome accumulation was -0.00768. The value for `NC[C@H]1O[C@H](O[C@H]2[C@H](O[C@@H]3O[C@H](CO)[C@@H](O)[C@H]3O)[C@@H](O)[C@H](N)C[C@@H]2N)[C@H](N)[C@@H](O)[C@@H]1O` [Ribostamycin sulfate salt] was 0.024; that for `COc1ccc(C(=O)NCc2cccnc2)cc1C(=O)NCc1cccnc1` [Picotamide monohydrate] was -0.352.

These data come from the supplement of paper PMC8090911.
